Data: the supplement of paper PMC10849652
The list shows a part of the results.

Amino acid sequences for entries named in this document (tags omitted). A change or cut given only in a name is not applied to a line headed by its entry.
UniProt Q13595: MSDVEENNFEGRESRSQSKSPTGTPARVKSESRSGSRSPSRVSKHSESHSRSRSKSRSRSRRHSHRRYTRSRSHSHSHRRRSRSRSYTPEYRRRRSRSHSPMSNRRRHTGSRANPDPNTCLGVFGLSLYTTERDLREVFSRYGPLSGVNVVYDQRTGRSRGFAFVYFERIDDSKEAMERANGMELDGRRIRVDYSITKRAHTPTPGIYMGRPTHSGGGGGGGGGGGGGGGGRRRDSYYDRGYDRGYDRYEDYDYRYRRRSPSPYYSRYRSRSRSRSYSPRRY
UniProt Q6ZVM7: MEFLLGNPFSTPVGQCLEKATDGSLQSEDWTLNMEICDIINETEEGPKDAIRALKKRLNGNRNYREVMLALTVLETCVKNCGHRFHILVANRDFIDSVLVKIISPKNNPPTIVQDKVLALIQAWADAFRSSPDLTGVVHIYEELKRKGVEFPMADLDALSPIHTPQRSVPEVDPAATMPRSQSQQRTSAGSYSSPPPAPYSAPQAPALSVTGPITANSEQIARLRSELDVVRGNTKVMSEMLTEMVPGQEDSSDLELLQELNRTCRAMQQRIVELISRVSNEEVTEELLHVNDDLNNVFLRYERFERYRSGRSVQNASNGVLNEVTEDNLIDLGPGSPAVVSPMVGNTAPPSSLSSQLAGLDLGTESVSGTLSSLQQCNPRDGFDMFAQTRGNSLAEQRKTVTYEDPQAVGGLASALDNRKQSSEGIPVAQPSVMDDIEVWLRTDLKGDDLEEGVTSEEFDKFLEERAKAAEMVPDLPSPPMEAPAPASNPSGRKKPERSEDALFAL
UniProt Q5JU69: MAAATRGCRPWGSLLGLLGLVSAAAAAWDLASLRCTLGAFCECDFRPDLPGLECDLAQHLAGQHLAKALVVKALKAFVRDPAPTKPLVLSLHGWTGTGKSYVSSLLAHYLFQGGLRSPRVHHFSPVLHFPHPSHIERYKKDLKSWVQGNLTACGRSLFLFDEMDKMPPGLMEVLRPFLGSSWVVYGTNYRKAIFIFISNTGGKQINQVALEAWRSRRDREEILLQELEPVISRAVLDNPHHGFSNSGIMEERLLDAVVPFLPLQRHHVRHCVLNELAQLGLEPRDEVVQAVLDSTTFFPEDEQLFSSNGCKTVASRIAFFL
UniProt O60704: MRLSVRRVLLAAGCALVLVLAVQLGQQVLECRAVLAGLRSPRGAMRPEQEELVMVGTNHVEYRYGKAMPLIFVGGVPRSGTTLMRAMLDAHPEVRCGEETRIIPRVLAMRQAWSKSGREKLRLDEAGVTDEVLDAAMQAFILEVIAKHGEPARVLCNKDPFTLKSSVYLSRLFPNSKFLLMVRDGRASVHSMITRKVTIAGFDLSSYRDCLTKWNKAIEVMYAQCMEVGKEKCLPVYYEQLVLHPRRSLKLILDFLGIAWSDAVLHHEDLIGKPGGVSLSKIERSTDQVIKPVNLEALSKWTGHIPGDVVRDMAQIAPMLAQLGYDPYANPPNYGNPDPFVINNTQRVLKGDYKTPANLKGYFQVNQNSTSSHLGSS
UniProt O94886: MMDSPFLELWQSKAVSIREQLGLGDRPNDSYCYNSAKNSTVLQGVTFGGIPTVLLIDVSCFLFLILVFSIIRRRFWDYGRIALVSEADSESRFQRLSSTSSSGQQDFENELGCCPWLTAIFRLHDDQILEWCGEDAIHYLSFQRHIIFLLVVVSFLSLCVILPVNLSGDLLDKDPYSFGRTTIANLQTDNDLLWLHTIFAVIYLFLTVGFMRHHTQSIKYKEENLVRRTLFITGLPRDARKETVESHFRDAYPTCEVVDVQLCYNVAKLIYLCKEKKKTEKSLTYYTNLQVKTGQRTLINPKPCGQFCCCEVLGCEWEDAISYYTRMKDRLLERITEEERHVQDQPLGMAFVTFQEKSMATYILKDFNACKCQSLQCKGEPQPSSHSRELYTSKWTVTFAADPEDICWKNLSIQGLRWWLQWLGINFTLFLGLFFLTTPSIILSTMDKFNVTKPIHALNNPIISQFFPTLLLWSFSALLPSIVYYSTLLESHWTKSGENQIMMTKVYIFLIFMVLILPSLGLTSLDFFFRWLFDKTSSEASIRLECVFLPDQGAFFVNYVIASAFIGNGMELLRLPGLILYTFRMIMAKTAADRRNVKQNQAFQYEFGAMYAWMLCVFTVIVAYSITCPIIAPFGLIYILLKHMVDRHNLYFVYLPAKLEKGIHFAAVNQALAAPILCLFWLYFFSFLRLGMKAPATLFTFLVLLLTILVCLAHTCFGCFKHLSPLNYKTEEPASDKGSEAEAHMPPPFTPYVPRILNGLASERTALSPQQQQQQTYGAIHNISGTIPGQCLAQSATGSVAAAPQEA
UniProt Q96HA7: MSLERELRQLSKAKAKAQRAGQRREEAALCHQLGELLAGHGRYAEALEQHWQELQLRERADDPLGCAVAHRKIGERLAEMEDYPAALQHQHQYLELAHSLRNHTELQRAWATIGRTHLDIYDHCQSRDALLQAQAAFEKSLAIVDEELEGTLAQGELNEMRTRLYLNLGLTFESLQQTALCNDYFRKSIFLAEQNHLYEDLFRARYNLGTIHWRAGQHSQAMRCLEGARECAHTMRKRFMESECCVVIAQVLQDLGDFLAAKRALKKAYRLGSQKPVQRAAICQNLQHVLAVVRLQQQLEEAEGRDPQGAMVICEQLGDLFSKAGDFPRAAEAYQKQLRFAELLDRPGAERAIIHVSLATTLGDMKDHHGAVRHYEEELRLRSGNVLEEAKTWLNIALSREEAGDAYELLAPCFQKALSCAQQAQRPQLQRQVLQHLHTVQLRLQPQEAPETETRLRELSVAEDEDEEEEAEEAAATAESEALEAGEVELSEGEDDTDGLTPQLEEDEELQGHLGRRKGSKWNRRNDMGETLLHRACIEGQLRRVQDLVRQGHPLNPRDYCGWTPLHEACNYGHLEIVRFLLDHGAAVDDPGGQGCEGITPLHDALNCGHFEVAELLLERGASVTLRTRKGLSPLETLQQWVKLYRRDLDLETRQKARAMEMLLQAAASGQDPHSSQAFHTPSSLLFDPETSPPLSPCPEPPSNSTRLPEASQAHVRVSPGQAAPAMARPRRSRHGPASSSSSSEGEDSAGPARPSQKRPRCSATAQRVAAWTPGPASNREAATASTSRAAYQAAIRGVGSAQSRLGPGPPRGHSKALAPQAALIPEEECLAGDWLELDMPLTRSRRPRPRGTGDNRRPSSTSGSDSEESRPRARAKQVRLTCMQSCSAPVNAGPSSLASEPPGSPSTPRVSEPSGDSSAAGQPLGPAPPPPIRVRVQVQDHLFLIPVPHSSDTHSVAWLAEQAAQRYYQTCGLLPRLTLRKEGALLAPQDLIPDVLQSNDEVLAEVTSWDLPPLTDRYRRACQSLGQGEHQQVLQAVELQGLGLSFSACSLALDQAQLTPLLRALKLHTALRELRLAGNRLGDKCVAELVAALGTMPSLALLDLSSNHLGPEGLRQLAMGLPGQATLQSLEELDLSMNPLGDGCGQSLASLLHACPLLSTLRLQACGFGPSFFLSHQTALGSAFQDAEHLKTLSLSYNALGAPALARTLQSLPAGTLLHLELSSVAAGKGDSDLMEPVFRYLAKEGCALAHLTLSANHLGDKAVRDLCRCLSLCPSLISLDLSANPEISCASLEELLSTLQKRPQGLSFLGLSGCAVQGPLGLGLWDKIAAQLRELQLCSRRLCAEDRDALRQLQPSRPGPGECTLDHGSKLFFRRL
UniProt P67936, whole entry, looked up: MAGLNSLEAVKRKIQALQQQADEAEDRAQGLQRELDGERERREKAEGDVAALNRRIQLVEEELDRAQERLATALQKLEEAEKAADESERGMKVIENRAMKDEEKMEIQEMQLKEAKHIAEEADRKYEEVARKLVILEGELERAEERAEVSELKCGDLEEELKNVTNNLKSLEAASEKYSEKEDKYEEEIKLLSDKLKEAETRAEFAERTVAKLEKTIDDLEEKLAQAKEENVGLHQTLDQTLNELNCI

Assays:
Experiment in all cases: log2 fold change, soluble protein after heating vs DMSO (PISA); higher = thermal stabilisation; K562 lysate, 10 uM; active = over 0.2 and 3.5 SD of the protein, either way, in both replicates (recomputed)
[1] = compound: C=CC(=O)N1CCC[C@@H](n2nc(-c3ccc(Oc4ccccc4)cc3)c3c(N)ncnc32)C1 [ibrutinib]
Summary of the method: (§1)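 K562 pellets were dounce-homogenised in PBS pH 7.4 with 1 mM MgCl2, and the crude extract at 1 mg/mL protein was treated with 10 μM compound for 30 min. Aliquots were heated for 3 min across 48°C-58°C, pooled, and brought to 0.5% NP-40 at 4°C; soluble protein was the supernatant after 21,000xg for 90 min. Soluble protein was quantified by TMTpro 16plex LC-MS/MS with channel sums equalised, and reported as log2 fold change in thermal stability against DMSO controls, with values from duplicates.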

[2] = compound: CC(=O)c1cnc2ccc(-c3cc(Cl)c(O)c(Cl)c3)nc2c1N[C@H]1CC[C@H](CN(C)C)CC1
Summary of the method: as §1

[3] = compound: CC(C)(C)Cn1c(N)nc2ccc(-c3[nH]c(C(C)(C)C)nc3-c3ccc(F)cc3)nc21 [ralimetinib]
Summary of the method: as §1

[4] = compound: CC(C)(O)CC(=O)NCCn1ccc2ncnc(Nc3ccc(Oc4cccc(C(F)(F)F)c4)c(Cl)c3)c21
Summary of the method: as §1

[5] = compound: CC(C)C1=C2N=C(C=C(N2N=C1)NCC3=CC=CC=C3)NCCCCCCN
Summary of the method: as §1

[6] = compound: CC1=C(C(CC(=O)N1)C2=CC=C(C=C2)C(F)(F)F)C(=O)NC3=C(C=C4C(=C3)C=NN4)F
Summary of the method: as §1

[7] = compound: CC1=C(C2=C(C=C1)C(=O)C3=CC=CC=C3N2CCCN)C
Summary of the method: as §1

[8] = compound: CC1=C(C=C(C=C1)NC(=O)C2=CC(=CC=C2)C(C)(C)C#N)NC3=CC4=C(C=C3)N=CN(C4=O)C
Summary of the method: as §1

[9] = compound: CC1=C(C=C(C=C1)NC(=O)C2=CC(=CC=C2)N(C)C)NC(=O)C3=CC=C(C=C3)O
Summary of the method: as §1

[10] = compound: CC1=CC=C(C=C1)SC2=C3C=C(SC3=CN=C2)C(=O)N
Summary of the method: as §1

[11] = compound: CCCS(=O)(=O)Nc1ccc(F)c(C(=O)c2c[nH]c3ncc(-c4ccc(Cl)cc4)cc23)c1F [vemurafenib]
Summary of the method: as §1

[12] = compound: CCCS(=O)(=O)Nc1ccc(F)c(C(=O)c2c[nH]c3ncc(Cl)cc23)c1F
Summary of the method: as §1

[13] = compound: CCN(CCCOc1ccc2c(Nc3cc(CC(=O)Nc4cccc(F)c4)[nH]n3)ncnc2c1)CCOP(=O)(O)O [barasertib]
Summary of the method: as §1

[14] = compound: CC[C@@H]1C(=O)N(C)c2cnc(Nc3ccc(C(=O)NC4CCN(C)CC4)cc3OC)nc2N1C1CCCC1
Summary of the method: as §1

[15] = compound: CC[C@@H]1C(=O)N(C)c2cnc(Nc3ccc(C(=O)N[C@H]4CC[C@H](N5CCN(CC6CC6)CC5)CC4)cc3OC)nc2N1C(C)C [volasertib]
Summary of the method: as §1

[16] = compound: CCn1c(C(=O)N(C2CC2)C2CC2)cc2c3c(ncn3C)c(Nc3cc(C)n(C)n3)nc21
Summary of the method: as §1

[17] = compound: CCn1cc(-c2ccnc3[nH]c(-c4cccc(CN(C)C)c4)cc23)c(-c2ccc(NC(=O)N(C)C)cc2)n1
Summary of the method: as §1

[18] = compound: CN1CCC(CNc2ccc3ncc(-c4cccc(OC(F)(F)F)c4)n3n2)CC1
Summary of the method: as §1

[19] = compound: CN1CCN(CCOc2cc(OC3CCOCC3)c3c(Nc4c(Cl)ccc5c4OCO5)ncnc3c2)CC1 [saracatinib]
Summary of the method: as §1

[20] = compound: CN1CCN(c2nc(C3=C(c4c[nH]c5ccccc45)C(=O)NC3=O)c3ccccc3n2)CC1 [sotrastaurin]
Summary of the method: as §1

Target	log2 fold change [1]	log2 fold change [2]	log2 fold change [3]	log2 fold change [4]	log2 fold change [5]	log2 fold change [6]	log2 fold change [7]	log2 fold change [8]	log2 fold change [9]	log2 fold change [10]	log2 fold change [11]	log2 fold change [12]	log2 fold change [13]	log2 fold change [14]	log2 fold change [15]	log2 fold change [16]	log2 fold change [17]	log2 fold change [18]	log2 fold change [19]	log2 fold change [20]
TRA2A (UniProt Q13595)	inactive: 0.127	inactive: -0.018	inactive: -0.079	inactive: -0.013	inactive: 0.21	inactive: -0.027	inactive: 0.039	inactive: 0.056	inactive: 0.019	inactive: -0.007	inactive: -0.197	inactive: -0.033	inactive: -0.194	inactive: -0.037	inactive: -0.052	inactive: 0.073	inactive: -0.023	inactive: 0.07	inactive: 0.074	inactive: 0
TPRKB (UniProt Q9Y3C4)	inactive: -0.063	inactive: -0.044	inactive: -0.069	inactive: 0.001	inactive: -0.021	inactive: -0.075	inactive: -0.001	inactive: -0.03	inactive: -0.034	inactive: -0.012	inactive: -0.001	inactive: 0.028	inactive: 0.063	inactive: -0.036	inactive: -0.019	inactive: -0.013	inactive: -0.079	inactive: -0.002	inactive: -0.019	inactive: -0.012
TOM1L2 (UniProt Q6ZVM7)	inactive: -0.034	inactive: 0	inactive: 0.099	inactive: 0.002	inactive: 0	inactive: -0.051	inactive: -0.01	inactive: 0.006	inactive: -0.069	inactive: -0.039	inactive: 0.002	inactive: 0.053	inactive: 0.088	inactive: 0.089	inactive: -0.134	inactive: -0.032	inactive: -0.096	inactive: 0.024	inactive: -0.009	inactive: 0.003
TOR2A (UniProt Q5JU69)	inactive: 0.028	inactive: 0.009	inactive: 0.024	inactive: -0.007	inactive: -0.039	inactive: -0.054	inactive: -0.087	inactive: 0.024	inactive: 0.016	inactive: -0.019	inactive: 0.038	inactive: 0.006	inactive: -0.044	inactive: 0.023	inactive: 0.023	inactive: -0.035	inactive: 0.122	inactive: -0.089	inactive: 0.032	inactive: 0.067
TPST2 (UniProt O60704)	inactive: -0.098	inactive: -0.036	inactive: 0.006	inactive: 0.019	inactive: -0.08	inactive: 0.039	inactive: -0.06	inactive: -0.039	inactive: -0.036	inactive: -0.08	inactive: 0.053	inactive: 0.009	inactive: 0.097	inactive: 0.075	inactive: -0.024	inactive: -0.011	active: -0.851	inactive: 0.188	inactive: 0.011	inactive: 0.065
TMEM63A (UniProt O94886)	inactive: 0.017	inactive: 0.035	inactive: 0.012	inactive: -0.069	inactive: -0.012	inactive: 0.014	inactive: -0.016	inactive: -0.024	inactive: 0.014	inactive: 0.023	inactive: -0.001	inactive: -0.016	inactive: 0	inactive: -0.023	inactive: 0.003	inactive: 0.048	inactive: 0.121	inactive: -0.039	inactive: -0.011	inactive: 0.032
TONSL (UniProt Q96HA7)	inactive: -0.102	inactive: -0.066	inactive: 0.011	inactive: 0.007	inactive: -0.137	inactive: 0.005	inactive: -0.007	inactive: -0.025	inactive: 0.052	inactive: -0.049	inactive: 0.029	inactive: 0.1	inactive: 0.015	inactive: -0.098	inactive: -0.099	inactive: 0.017	inactive: -0.021	inactive: -0.03	inactive: -0.001	inactive: 0.055
TPM4 isoform 2 (UniProt P67936)	inactive: -0.062	inactive: 0.016	inactive: -0.005	inactive: 0.032	inactive: -0.034	inactive: -0.027	inactive: -0.025	inactive: -0.06	inactive: -0.004	inactive: 0	inactive: 0.031	inactive: -0.016	inactive: 0.021	inactive: 0.052	inactive: 0.005	inactive: 0.048	active: 0.525	inactive: -0.231	inactive: -0.001	inactive: -0.03
